The list shows a part of the results.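 How the source made its calls: active = dose-dependent thermal stabilisation significant by F-test of dose-response against flat model at 10% FDR; inactive = not significant.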
Compound: Nc1nc2c(ncn2[C@@H]2O[C@H](COP(=O)(O)OP(=O)(O)OP(=O)(O)O)[C@@H](O)[C@H]2O)c(=O)[nH]1
Assay: dose-dependent thermal stabilisation call (2D-TPP, DLPTP, 10% FDR) (binary (1 = stabilised)); higher = stabilised by the compound
Settings: system: Jurkat gel-filtered lysate; concentration range 1-500 µM

By UniProt entry, the sequences of proteins in these tests, tags left out. Where a name states a change or a piece, a line headed by the entry shows the natural chain unless it says otherwise.
UniProt Q7L4I2: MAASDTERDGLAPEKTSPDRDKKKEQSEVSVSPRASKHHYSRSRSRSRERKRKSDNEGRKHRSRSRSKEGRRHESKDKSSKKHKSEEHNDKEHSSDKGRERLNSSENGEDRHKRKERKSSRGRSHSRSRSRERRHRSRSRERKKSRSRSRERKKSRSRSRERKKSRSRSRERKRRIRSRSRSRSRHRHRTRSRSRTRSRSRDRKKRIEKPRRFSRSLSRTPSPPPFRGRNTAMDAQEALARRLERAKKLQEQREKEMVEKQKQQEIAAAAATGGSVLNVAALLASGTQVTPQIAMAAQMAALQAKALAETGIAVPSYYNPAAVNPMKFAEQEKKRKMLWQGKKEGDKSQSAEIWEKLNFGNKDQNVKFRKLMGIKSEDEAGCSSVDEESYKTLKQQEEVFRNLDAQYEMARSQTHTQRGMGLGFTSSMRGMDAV
UniProt Q14160: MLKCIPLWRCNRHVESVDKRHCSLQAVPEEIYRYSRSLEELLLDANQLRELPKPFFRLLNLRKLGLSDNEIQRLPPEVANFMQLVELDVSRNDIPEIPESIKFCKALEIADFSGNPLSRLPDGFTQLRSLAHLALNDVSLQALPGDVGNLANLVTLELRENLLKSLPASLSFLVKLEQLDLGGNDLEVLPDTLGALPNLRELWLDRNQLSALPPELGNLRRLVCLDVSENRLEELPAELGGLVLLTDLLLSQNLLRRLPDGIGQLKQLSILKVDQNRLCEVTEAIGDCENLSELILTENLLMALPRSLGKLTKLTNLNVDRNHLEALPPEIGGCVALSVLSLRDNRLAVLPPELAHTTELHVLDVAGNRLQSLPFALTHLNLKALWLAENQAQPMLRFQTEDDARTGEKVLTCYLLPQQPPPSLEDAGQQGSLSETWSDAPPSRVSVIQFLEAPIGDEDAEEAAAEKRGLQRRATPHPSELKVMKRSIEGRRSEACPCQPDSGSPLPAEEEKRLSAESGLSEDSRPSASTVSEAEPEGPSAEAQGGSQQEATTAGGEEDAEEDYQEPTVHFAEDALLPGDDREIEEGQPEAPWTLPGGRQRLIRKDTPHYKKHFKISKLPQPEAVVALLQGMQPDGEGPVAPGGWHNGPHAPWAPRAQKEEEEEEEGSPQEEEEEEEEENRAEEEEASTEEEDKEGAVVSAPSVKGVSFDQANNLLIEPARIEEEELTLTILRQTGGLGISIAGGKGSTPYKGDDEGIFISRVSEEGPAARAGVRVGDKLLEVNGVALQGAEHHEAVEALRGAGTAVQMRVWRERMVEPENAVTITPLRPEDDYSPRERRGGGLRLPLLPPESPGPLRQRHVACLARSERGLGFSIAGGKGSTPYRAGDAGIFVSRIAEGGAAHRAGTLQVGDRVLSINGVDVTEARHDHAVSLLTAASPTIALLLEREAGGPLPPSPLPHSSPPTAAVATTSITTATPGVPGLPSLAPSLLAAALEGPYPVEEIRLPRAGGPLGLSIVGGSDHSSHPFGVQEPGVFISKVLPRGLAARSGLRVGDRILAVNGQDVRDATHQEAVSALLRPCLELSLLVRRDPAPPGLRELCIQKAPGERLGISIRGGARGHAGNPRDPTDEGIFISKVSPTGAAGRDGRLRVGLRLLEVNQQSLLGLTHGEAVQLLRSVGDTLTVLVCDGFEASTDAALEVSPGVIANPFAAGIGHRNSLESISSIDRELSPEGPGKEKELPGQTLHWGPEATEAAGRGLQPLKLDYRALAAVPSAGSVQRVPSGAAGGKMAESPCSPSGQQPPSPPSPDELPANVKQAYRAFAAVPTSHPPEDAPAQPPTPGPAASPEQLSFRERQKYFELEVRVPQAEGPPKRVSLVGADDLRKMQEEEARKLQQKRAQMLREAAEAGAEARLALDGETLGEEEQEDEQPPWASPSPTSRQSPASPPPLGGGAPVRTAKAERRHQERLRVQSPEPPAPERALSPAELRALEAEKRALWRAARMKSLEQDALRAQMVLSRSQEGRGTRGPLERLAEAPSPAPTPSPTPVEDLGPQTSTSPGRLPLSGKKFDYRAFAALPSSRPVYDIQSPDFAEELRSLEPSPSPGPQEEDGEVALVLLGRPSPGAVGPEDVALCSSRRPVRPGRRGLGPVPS
UniProt P84101: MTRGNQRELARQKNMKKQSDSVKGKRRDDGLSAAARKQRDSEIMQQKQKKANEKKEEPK
UniProt Q9H4A4: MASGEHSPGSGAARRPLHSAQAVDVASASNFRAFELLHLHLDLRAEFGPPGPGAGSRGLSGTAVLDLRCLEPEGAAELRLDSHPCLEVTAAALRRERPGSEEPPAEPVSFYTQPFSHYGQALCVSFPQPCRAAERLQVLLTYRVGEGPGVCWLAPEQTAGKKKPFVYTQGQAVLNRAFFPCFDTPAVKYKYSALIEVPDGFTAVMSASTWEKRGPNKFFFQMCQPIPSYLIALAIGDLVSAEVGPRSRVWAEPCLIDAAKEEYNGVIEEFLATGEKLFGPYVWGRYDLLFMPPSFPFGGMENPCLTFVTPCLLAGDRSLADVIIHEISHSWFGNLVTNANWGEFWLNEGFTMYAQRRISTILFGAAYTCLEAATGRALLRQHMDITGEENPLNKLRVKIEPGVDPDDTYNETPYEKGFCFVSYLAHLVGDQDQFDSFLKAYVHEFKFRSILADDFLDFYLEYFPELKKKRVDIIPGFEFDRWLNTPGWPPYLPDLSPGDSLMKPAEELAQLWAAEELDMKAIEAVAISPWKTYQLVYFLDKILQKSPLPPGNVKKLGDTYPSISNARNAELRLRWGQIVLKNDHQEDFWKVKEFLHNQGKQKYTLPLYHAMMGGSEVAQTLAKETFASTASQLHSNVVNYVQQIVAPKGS
UniProt Q6UVJ0: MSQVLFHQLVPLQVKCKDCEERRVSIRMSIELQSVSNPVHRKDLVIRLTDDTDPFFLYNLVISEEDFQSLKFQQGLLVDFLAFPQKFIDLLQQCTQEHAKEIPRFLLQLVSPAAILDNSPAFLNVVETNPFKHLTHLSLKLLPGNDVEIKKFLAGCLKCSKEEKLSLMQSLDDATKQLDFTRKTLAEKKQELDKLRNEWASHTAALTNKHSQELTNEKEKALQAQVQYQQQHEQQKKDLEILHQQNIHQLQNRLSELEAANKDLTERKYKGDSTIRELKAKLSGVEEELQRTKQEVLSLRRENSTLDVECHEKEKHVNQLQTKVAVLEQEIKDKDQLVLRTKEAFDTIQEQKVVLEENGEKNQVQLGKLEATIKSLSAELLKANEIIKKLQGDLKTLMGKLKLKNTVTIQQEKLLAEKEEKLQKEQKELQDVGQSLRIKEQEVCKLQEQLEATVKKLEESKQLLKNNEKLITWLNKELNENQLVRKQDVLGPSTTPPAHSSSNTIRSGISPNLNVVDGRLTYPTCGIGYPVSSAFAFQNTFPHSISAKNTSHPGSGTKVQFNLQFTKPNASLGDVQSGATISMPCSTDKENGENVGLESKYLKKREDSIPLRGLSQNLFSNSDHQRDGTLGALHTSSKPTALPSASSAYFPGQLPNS
UniProt Q92622: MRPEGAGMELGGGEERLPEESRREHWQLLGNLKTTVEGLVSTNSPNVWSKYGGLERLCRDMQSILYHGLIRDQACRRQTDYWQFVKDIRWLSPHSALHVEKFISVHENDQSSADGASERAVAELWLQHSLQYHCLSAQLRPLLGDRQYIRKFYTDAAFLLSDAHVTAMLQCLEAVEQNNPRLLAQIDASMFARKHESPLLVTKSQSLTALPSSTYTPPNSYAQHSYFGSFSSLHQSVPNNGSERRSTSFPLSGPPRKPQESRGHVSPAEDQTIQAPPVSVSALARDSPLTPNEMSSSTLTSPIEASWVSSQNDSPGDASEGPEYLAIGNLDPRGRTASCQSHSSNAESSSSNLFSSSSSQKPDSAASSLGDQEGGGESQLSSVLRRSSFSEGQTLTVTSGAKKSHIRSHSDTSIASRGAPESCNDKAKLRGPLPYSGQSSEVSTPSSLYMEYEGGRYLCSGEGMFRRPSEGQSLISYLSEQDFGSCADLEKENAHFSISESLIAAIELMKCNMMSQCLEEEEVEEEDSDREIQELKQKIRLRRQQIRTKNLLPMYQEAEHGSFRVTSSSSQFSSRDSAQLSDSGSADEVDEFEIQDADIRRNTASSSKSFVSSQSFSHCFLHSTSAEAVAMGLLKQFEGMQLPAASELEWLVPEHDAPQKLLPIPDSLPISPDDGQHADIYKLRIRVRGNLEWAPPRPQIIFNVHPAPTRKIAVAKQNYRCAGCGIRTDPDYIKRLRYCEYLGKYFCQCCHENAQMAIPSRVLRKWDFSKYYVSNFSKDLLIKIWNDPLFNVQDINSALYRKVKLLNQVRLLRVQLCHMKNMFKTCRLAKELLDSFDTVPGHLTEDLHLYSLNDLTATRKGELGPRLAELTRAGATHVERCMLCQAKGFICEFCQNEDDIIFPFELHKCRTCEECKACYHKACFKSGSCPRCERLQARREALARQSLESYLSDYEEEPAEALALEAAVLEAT
UniProt Q9Y467: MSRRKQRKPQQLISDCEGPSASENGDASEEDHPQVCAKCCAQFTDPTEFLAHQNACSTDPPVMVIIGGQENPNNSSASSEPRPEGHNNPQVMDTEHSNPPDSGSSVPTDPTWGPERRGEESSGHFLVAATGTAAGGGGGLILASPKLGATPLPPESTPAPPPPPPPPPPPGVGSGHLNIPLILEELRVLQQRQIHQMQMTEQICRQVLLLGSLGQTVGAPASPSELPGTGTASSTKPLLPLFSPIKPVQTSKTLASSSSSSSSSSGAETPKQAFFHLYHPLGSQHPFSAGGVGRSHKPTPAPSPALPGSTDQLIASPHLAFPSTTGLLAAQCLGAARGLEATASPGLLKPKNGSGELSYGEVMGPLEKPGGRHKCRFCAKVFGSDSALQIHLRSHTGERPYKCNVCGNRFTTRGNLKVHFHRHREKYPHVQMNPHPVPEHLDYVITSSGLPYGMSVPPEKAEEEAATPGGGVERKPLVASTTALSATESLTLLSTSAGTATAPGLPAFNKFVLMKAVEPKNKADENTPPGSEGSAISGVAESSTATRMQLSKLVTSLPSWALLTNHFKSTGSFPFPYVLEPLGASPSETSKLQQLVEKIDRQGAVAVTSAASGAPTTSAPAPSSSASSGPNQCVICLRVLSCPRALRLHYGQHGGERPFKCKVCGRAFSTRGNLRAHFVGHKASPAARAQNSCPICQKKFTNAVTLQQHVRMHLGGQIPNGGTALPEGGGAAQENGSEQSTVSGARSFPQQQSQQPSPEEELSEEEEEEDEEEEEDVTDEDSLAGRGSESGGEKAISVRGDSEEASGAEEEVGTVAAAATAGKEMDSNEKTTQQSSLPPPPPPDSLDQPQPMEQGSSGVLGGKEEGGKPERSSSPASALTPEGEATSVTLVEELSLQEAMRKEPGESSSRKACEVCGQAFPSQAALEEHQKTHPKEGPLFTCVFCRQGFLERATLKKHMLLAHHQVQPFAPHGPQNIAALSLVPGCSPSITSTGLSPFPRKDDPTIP
UniProt P50454: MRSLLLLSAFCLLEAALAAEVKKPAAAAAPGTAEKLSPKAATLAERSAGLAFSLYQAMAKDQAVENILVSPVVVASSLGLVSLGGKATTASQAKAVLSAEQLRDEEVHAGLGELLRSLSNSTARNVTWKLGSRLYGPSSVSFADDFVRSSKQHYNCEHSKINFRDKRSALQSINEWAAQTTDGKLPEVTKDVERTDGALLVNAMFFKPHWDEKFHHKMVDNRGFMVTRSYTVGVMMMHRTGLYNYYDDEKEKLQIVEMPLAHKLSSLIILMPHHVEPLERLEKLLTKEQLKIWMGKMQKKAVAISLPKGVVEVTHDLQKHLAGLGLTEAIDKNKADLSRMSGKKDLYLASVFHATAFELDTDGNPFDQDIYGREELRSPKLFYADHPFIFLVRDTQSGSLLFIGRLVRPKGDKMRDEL
UniProt Q14141: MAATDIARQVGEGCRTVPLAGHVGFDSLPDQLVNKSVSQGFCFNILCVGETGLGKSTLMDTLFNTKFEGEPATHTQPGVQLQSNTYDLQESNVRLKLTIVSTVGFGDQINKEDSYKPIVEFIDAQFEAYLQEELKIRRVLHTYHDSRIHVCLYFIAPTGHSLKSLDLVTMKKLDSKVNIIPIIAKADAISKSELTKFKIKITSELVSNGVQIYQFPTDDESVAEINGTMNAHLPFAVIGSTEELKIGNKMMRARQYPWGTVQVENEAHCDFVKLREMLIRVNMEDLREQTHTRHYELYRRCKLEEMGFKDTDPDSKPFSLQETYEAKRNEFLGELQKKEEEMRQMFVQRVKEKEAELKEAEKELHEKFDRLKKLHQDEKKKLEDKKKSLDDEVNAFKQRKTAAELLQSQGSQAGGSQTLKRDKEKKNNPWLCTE

| Target | dose-dependent thermal stabilisation call |
| --- | --- |
| SF3A3 (UniProt Q12874) | inactive: 0 |
| RPUSD2 (UniProt Q8IZ73) | inactive: 0 |
| RHEB (UniProt Q15382) | active: 1 |
| RIOX2 (UniProt Q8IUF8) | inactive: 0 |
| RRAGA (UniProt Q7L523) | active: 1 |
| RHOG (UniProt P84095) | inactive: 0 |
| RNF220 (UniProt Q5VTB9) | inactive: 0 |
| RSRC2 (UniProt Q7L4I2) | inactive: 0 |
| RPS21 (UniProt P63220) | inactive: 0 |
| RFXANK (UniProt O14593) | inactive: 0 |
| RPSA (UniProt P08865) | inactive: 0 |
| RPS6KA1 (UniProt Q15418) | active: 1 |
| RPS2 (UniProt P15880) | inactive: 0 |
| SASH3 (UniProt O75995) | inactive: 0 |
| SCRIB (UniProt Q14160) | inactive: 0 |
| ROCK2 (UniProt O75116) | inactive: 0 |
| SERF2 (UniProt P84101) | inactive: 0 |
| SF3B3 (UniProt Q15393) | inactive: 0 |

| Target | dose-dependent thermal stabilisation call |
| --- | --- |
| RNPEP (UniProt Q9H4A4) | inactive: 0 |
| SASS6 (UniProt Q6UVJ0) | inactive: 0 |
| RRAS2 (UniProt P62070) | active: 1 |
| SFSWAP (UniProt Q12872) | inactive: 0 |
| RUBCN (UniProt Q92622) | inactive: 0 |
| S100PBP (UniProt Q96BU1) | inactive: 0 |
| RPRD1A (UniProt Q96P16) | active: 1 |
| RNF169 (UniProt Q8NCN4) | inactive: 0 |
| SCP2 (UniProt P22307) | inactive: 0 |
| SALL2 (UniProt Q9Y467) | inactive: 0 |
| RNF41 (UniProt Q9H4P4) | inactive: 0 |
| SEC22B (UniProt O75396) | inactive: 0 |
| RPAP3 (UniProt Q9H6T3) | inactive: 0 |
| SERPINH1 (UniProt P50454) | inactive: 0 |
| SF3A2 (UniProt Q15428) | inactive: 0 |
| RHOA (UniProt P61586) | active: 1 |
| SEPTIN6 (UniProt Q14141) | active: 1 |

Reformatted bar-delimited: part of the list above.
Target | dose-dependent thermal stabilisation call
RNF169 (UniProt Q8NCN4) | inactive: 0
SCP2 (UniProt P22307) | inactive: 0
SALL2 (UniProt Q9Y467) | inactive: 0
RNF41 (UniProt Q9H4P4) | inactive: 0
SEC22B (UniProt O75396) | inactive: 0
RPAP3 (UniProt Q9H6T3) | inactive: 0
